Assay results reported in patent US10053487B2, “Neuroactive 19-alkoxy-17(20)-Z-vinylcyano-substituted steroids, prodrugs thereof, and methods of treatment using same” (priority 2012, dated 2018).

Experiments:
[1] = tested on: T1, GABAA receptors (picrotoxin binding site); assay: [35S]-TBPS displacement (non-competitive displacement from the picrotoxin binding site); details: Hill coefficient; ± SEM
T1 construct: other: duplicate experiments performed in triplicate; ± SEM; other: Hill coefficient
Method: The IC50 values for the compounds of Scheme 1 (i.e., Compounds 1 and 2) as non-competitive displacers of [^35S]-TBPS from the picrotoxin binding site on GABAA receptors are reported in Table 1.
Results presented are from duplicate experiments performed in triplicate. Error limits are calculated as standard error of the mean. Methods used are known in the art (see, e.g., E. Stastna, et al., Neurosteroid Analogues. 16. A New Explanation for the Lack of Anesthetic Effects in Δ^16-Alphaxalone and Identification of a Δ^17(20) Analogue with Potent Anesthetic Activity, J. Med. Chem., 54(11), pp. 3926-34 (2011)).

tadpoles = assay: Tadpole loss of righting reflex (LRR) and loss of swimming reflex (LSR); type: in vivo; details: Hill coefficient; for Tadpole LRR nHill: loss of righting reflex
Excerpt: Table 3 discloses the anesthetic effects of the compounds of the present disclosure. In particular, the anesthetic effect of the compounds of the present disclosure on Loss of Righting Reflex (LRR) and Loss of Swimming Reflex (LSR).
A quantal dose-response curve for loss of righting reflect (LRR) and loss of swimming reflex (LSR) caused by Compound 1 in tadpoles, is illustrated in FIG. 3, as well. ^aMethods used are known in the art (see, e.g., E. Stastna, et al., Neurosteroid Analogues. 16. A New Explanation for the Lack of Anesthetic Effects in Δ^16-Alphaxalone and Identification of a Δ^17(20) Analogue with Potent Anesthetic Activity, J. Med. Chem., 54(11), pp. 3926-34 (2011)). Error limits are calculated as standard error of the mean (N=10 or more animals at each of five or more different concentrations).

COC[C@]12CC[C@@H](O)C[C@@H]1CC[C@@H]1[C@@H]2CC[C@]2(C)/C(=C\C#N)CC[C@@H]12 [Compound 1, [3α,5α,17(20)Z]-19-methoxypregn-17(20)-ene-21-nitrile]
Inhibition of [35S]-TBPS binding, nHill [1]: 1.21 ± 0.11 | Tadpole LRR nHill (tadpoles): −1.32 ± 0.23 | Tadpole LSR nHill (tadpoles; loss of swimming reflex): −20.0 ± 0.43

COC[C@]12CC[C@@H](O)C[C@@H]1CC[C@@H]1[C@@H]2CC[C@]2(C)/C(=C/C#N)CC[C@@H]12 [Compound 2, [3α,5α,17(20)E]-19-methoxypregn-17(20)-ene-21-nitrile]
Inhibition of [35S]-TBPS binding, nHill [1]: 0.91 ± 0.11 | Tadpole LRR nHill (tadpoles): −1.97 ± 0.65
